Results published in doi:10.1101/2021.12.08.471779.
Residue numbers refer to the chain shown, from its start. Results are given in words; binding and its absence hold for the method and conditions named. In cells and extracts the contact can be indirect. Some results given as binding are weak or reduced against the parent protein; the word gives no strength.

By UniProt entry, the sequences of proteins in these tests, tags left out. Where a name states a change or a piece, a line headed by the entry shows the natural chain unless it says otherwise.
UniProt P02929, whole entry, looked up, stated change not applied: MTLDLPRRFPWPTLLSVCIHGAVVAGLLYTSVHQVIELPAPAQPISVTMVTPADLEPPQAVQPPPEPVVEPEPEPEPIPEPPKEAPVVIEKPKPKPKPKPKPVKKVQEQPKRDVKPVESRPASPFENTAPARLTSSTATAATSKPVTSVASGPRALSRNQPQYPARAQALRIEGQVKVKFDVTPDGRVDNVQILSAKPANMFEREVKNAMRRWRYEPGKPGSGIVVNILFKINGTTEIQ

Columns and labels:
Experiment in all cases: cross-linking
[1] = molecular target: T1, FepA V124C (Escherichia coli K-12) (UniProt P05825)
T1 sequence: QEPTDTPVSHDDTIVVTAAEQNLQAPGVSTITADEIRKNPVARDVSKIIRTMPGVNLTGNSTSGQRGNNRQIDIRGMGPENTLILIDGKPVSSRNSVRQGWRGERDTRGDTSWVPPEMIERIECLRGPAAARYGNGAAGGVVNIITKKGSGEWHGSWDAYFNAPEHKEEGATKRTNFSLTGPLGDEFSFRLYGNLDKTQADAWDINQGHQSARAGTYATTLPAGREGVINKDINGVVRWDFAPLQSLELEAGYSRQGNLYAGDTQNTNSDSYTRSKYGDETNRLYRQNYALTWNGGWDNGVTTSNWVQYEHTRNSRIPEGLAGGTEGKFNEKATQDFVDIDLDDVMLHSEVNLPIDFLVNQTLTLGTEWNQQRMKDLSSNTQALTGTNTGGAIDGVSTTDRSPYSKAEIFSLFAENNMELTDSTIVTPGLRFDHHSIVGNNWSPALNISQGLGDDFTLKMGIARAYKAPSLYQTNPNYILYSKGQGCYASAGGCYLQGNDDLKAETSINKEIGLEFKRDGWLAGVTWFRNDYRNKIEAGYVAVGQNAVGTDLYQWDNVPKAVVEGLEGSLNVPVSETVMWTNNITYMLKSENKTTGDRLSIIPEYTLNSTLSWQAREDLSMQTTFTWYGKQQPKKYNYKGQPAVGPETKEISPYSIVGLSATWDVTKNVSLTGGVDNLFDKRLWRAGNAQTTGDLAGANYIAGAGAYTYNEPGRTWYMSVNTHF

[2] = molecular target: T2, FepA T51C (Escherichia coli K-12) (UniProt P05825)
T2 sequence: T1 sequence with T51C, C124V

[3] = molecular target: T3, FepA V142C (Escherichia coli K-12) (UniProt P05825)
T3 sequence: T1 sequence with C124V, V142C

| binding [1] | binding [2] | binding [3] | Substance |
| --- | --- | --- | --- |
| no binding | binds | no binding | TonB C18G Q160C (from UniProt P02929 1-239) |
| no binding | no binding | no binding | TonB C18G A209C (from UniProt P02929 1-239) |
| no binding | – | no binding | TonB C18G R214C (from UniProt P02929 1-239) |
| no binding | no binding | no binding | TonB C18G R212C (from UniProt P02929 1-239) |
| no binding | no binding | no binding | TonB C18G V206C (from UniProt P02929 1-239) |
| no binding | no binding | no binding | TonB C18G N208C (from UniProt P02929 1-239) |
| no binding | – | no binding | TonB C18G M201C (from UniProt P02929 1-239) |
| no binding | no binding | no binding | TonB C18G R204C (from UniProt P02929 1-239) |
